The values below come from publication PMC6712033, “Proteasome subunit α1 overexpression preferentially drives canonical proteasome biogenesis and enhances stress tolerance in yeast” (Scientific Reports, 2019).

The assay concerns the target T1, proteasome subunit β5-3xFLAG (S. cerevisiae) (UniProt P30656).
T1 sequence: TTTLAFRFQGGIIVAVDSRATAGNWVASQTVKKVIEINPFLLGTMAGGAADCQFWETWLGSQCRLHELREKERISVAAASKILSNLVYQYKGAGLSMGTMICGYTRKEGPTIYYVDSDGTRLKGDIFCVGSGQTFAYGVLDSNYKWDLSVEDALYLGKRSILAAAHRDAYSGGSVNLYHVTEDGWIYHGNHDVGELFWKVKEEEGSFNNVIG
Put plainly: affinity purification with mass spectrometry; CP purified by β5-3xFLAG on anti-FLAG M2 gel from mixed SILAC-labelled extracts of pba3Δ yeast (empty vector or α1 overexpressed); 500 mM NaCl washes; eluted with 3xFLAG peptide; native PAGE, 20S band excised, LC-MS/MS.

These are yes or no findings as the source states them, for the method shown. In cells and extracts the contact can be indirect. A yes stands for co-enrichment or nearness to the bait. Other partners may have been found. Tags and fused reporters may be left off the sequences shown.

B1: proteasome subunit α4 (protein, UniProt P40303 1-254)
chain: MSGYDRALSIFSPDGHIFQVEYALEAVKRGTCAVGVKGKNCVVLGCERRSTLKLQDTRITPSKVSKIDSHVVLSFSGLNADSRILIEKARVEAQSHRLTLEDPVTVEYLTRYVAGVQQRYTQSGGVRPFGVSTLIAGFDPRDDEPKLYQTEPSGIYSSWSAQTIGRNSKTVREFLEKNYDRKEPPATVEECVKLTVRSLLEVVQTGAKNIEITVVKPDSDIVALSSEEINQYVTQIEQEKQEQQEQDKKKKSNH
Take B1: the binding entry is given as “binds”.
